Measured values taken from publication PMC8277857.
No constants are given. Whether binding was seen depends on the method and setting. Binding seen in cells or lysates may run through a third protein. Here binding means that the protein was enriched with, or labelled near, the bait; the list need not be complete.

By UniProt entry, the sequences of proteins in these tests, tags left out. Residues count along the entry.
UniProt P51784: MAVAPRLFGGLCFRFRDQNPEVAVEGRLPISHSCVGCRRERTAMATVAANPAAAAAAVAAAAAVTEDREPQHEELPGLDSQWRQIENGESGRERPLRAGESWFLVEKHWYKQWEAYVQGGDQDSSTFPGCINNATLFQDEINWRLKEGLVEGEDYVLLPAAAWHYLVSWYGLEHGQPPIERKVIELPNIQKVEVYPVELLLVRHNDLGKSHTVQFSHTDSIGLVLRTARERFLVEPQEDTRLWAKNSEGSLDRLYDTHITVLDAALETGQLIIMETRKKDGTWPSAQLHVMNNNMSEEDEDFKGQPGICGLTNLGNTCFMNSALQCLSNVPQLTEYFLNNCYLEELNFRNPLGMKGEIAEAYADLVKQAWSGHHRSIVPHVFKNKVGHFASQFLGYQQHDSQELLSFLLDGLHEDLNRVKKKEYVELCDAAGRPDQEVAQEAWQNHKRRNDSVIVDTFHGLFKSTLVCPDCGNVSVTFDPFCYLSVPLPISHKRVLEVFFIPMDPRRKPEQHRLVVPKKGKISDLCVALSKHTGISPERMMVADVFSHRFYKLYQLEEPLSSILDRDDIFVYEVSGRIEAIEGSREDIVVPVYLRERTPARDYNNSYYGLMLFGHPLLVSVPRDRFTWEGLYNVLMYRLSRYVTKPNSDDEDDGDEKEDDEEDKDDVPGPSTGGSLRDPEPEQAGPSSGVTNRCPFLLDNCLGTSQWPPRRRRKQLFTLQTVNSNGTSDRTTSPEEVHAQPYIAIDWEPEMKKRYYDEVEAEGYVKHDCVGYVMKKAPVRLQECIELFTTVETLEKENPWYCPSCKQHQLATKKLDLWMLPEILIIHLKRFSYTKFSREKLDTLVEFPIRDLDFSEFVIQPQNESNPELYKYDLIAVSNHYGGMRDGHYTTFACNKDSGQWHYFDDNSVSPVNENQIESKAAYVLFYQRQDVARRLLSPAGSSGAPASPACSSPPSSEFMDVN
UniProt P17844: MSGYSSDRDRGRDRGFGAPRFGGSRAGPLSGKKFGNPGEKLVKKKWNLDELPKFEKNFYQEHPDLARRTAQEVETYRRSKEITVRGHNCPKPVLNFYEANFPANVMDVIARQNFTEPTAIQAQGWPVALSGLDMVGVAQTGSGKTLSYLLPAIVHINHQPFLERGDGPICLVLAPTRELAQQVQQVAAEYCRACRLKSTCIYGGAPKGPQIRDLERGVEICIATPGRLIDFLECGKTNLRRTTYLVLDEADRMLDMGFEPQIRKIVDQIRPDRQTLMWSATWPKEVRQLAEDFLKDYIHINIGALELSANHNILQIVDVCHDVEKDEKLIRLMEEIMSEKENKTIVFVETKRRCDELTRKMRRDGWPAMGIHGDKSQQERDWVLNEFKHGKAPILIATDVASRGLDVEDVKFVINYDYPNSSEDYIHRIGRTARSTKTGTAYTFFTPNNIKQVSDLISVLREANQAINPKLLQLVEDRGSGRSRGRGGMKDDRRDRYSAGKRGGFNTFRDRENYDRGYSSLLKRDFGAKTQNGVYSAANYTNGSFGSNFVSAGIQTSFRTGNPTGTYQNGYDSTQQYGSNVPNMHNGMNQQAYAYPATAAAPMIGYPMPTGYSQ
UniProt O14744: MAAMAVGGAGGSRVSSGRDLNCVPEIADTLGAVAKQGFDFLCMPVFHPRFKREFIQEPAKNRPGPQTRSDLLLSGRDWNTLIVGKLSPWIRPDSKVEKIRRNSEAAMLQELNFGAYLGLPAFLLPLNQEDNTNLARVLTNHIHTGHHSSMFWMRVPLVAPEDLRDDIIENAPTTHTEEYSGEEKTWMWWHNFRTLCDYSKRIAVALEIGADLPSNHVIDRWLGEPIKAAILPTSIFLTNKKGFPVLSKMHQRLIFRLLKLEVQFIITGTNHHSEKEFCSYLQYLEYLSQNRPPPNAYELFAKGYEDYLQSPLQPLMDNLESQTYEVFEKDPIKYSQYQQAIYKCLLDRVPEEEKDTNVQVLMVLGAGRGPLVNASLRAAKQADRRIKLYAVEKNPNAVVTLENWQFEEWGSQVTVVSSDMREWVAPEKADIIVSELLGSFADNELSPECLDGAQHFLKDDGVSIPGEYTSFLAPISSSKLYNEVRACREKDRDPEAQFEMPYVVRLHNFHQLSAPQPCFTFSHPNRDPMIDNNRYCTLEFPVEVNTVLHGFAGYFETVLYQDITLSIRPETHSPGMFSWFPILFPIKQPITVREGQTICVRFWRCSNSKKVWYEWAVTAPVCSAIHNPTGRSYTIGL
UniProt P11021, residues 19-654: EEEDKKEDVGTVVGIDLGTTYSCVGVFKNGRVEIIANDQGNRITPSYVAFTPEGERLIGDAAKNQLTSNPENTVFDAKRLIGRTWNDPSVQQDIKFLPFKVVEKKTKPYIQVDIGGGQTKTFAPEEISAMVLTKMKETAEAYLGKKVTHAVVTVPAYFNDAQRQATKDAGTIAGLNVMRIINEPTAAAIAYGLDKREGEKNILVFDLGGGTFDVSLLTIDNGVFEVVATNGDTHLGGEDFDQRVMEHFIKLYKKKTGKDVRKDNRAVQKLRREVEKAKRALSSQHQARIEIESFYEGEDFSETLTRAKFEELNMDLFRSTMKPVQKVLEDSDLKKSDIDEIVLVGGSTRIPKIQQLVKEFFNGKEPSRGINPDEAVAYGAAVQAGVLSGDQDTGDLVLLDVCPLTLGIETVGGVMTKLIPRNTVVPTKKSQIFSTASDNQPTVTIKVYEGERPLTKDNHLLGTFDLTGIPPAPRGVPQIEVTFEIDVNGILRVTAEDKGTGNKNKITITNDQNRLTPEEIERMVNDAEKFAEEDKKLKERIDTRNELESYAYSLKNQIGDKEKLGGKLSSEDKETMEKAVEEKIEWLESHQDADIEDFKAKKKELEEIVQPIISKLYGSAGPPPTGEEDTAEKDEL
UniProt P0DMV8: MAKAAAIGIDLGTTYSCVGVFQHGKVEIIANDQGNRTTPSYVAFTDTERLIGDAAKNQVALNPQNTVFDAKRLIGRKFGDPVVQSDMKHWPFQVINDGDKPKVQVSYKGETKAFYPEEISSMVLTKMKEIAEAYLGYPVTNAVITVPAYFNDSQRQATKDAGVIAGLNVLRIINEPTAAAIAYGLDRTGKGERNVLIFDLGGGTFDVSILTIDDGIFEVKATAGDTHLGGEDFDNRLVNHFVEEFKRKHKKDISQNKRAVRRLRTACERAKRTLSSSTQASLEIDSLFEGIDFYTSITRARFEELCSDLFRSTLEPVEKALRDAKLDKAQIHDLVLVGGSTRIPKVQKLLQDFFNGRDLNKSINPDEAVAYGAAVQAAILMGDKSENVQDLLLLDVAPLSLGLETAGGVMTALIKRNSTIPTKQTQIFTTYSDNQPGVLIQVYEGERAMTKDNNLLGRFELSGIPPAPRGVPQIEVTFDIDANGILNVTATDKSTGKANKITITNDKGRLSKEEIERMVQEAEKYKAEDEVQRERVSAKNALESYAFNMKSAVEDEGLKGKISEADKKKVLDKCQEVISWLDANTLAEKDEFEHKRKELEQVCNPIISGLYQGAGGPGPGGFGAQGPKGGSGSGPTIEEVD

B1: TGM2 (protein, UniProt P21980 1-687)
chain: MAEELVLERCDLELETNGRDHHTADLCREKLVVRRGQPFWLTLHFEGRNYEASVDSLTFSVVTGPAPSQEAGTKARFPLRDAVEEGDWTATVVDQQDCTLSLQLTTPANAPIGLYRLSLEASTGYQGSSFVLGHFILLFNAWCPADAVYLDSEEERQEYVLTQQGFIYQGSAKFIKNIPWNFGQFEDGILDICLILLDVNPKFLKNAGRDCSRRSSPVYVGRVVSGMVNCNDDQGVLLGRWDNNYGDGVSPMSWIGSVDILRRWKNHGCQRVKYGQCWVFAAVACTVLRCLGIPTRVVTNYNSAHDQNSNLLIEYFRNEFGEIQGDKSEMIWNFHCWVESWMTRPDLQPGYEGWQALDPTPQEKSEGTYCCGPVPVRAIKEGDLSTKYDAPFVFAEVNADVVDWIQQDDGSVHKSINRSLIVGLKISTKSVGRDEREDITHTYKYPEGSSEEREAFTRANHLNKLAEKEETGMAMRIRVGQSMNMGSDFDVFAHITNNTAEEYVCRLLLCARTVSYNGILGPECGTKYLLNLNLEPFSEKSVPLCILYEKYRDCLTESNLIKVRALLVEPVINSYLLAERDLYLENPEIKIRILGEPKQKRKLVAEVSLQNPLPVALEGCTFTVEGAGLTEEQKTVEIPDPVEAGEEVKVRMDLLPLHMGLHKLVVNFESDKLKAVKGFRNVIIGPA

target: USP11 (immunoprecipitated from ES2 cells) (human (in ES2 cells; whether endogenous is not stated)) (UniProt P51784); assay: affinity purification with mass spectrometry; immunoprecipitation of USP11 from ES2 cells, mass spectrometry of the co-precipitate

binding, binds:
DDX5 (from UniProt P17844 1-614)
PRMT5 (from UniProt O14744 1-637)
BIP (in ES2 cells) (from UniProt P11021 19-654)
HSPA1A (from UniProt P0DMV8 1-641)
B1
